From patent US20180015038A1, “OMEGA-3 FATTY ACID SELF-EMULSIFYING COMPOSITION” (MOCHIDA PHARMACEUTICAL CO., LTD., priority 2015, published 2018)

Test: Dissolution of the statin in the self-emulsifying composition on preparation
Type: physicochemical
Conditions: statin added to self-emulsifying composition, 50° C., stirring, ultrasonication
Protocol: • (1) 2.12 g of water, 18 g of polyoxyethylene (20) sorbitan oleate ester, 18 g of Polyoxyl 35 castor oil, 11 g of soybean lecithin, and 204.6 g of EPA-E were weighed, sealed in a container, heated to about 70° C. with mixing to prepare a self-emulsifying composition. • (2) 6.3 g of the self-emulsifying composition of (1) was weighed, and after adding 10 mg of pitavastatin calcium in the case of Example 1 or 40 mg of pitavastatin calcium in the case of Example 2, the mixture was heated to 50° C., stirred, and subjected to ultrasonication to prepare each pharmaceutical composition. The resulting pharmaceutical composition was purged with nitrogen, sealed in a container, and stored at room temperature until the evaluation was conducted.

dissolution of the statin in the pharmaceutical composition: did not dissolve
Compound: CC(C)c1c(C(=O)Nc2ccccc2)c(-c2ccccc2)c(-c2ccc(F)cc2)n1CC[C@@H](O)C[C@@H](O)CC(=O)[O-].CC(C)c1c(C(=O)Nc2ccccc2)c(-c2ccccc2)c(-c2ccc(F)cc2)n1CC[C@@H](O)C[C@@H](O)CC(=O)[O-].[Ca+2] [atorvastatin calcium]
